# Data: the supplement of paper PMC8728848
# This is one part of the list.
# B1: PX9916F-bfa-443-24-443 (Bacteroides fragilis) (protein)
# chain: DIRPVGSVIPQTAEEYRALLARAYLNVPNDRGLACLRSDEMLVNDNEYDRNSYGDIERWNDVSPFPGTSQFTWSNFYNVLFIANQVIESQKEITEGTPEVVNQLVGEAHLLRAYLHFVLVNLHGQPYTKSGALNSKSIPLKLDTDLEKTLGRNTVEEVYTSILSDIEHARELINKEKWETVFSYRFNVLSVDALQSRVSLYMGAWPKCLESAEAVLAKKSVLVDMNETPLALPNHFESVESITALEQVMGSSVNNAVWVPATFLALYQEGDKRLAAYFAAPDENGNRKSSKGGKREFSCTFRVGELYLNAAEAAANMDKLPHARMRLLELMRKRYTPEAYDKKENAVNVMDKNALISEILNERARELAFEGHRWFDLRRTTRPRMVKVLQGKTYILEQDDPRYTIPIPRDAIAANPGLAN
# Tests used:
# Experiment in all cases: glycan array binding signal (z-score within array); higher = stronger binding
# Conditions in all cases: glycan notation: IUPAC condensed, linker removed
# GlcNAc(b1-3)Gal(b1-4)Glc = biological target: GlcNAc(b1-3)Gal(b1-4)Glc
# How it was run: (§1)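 Arrays were curated from the Consortium for Functional Glycomics database, 3228 in total, and kept only where the protein sequence was available. Binding is expressed as a within-array Z-score. This score was averaged across arrays of the same protein sequence at different concentrations or buffers and across linkers, and negative values can be read as non-binding.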
# [1] = biological target: GlcNAc(b1-3)Gal(b1-4)GlcNAc
# How it was run: as §1
# [2] = biological target: GlcNAc(b1-3)Gal(b1-4)GlcNAc(b1-2)Man(a1-3)[GlcNAc(b1-3)Gal(b1-4)GlcNAc(b1-2)Man(a1-6)]Man(b1-4)GlcNAc(b1-4)GlcNAc
# How it was run: as §1
# [3] = biological target: GlcNAc(b1-3)Gal(b1-4)GlcNAc(b1-2)Man(a1-3)[GlcNAc(b1-3)Gal(b1-4)GlcNAc(b1-2)Man(a1-6)]Man(b1-4)GlcNAc(b1-4)[Fuc(a1-6)]GlcNAc
# How it was run: as §1
# [4] = biological target: GlcNAc(b1-3)Gal(b1-4)GlcNAc(b1-2)[GlcNAc(b1-3)Gal(b1-4)GlcNAc(b1-6)]Man(a1-6)[GlcNAc(b1-3)Gal(b1-4)GlcNAc(b1-2)Man(a1-3)]Man(b1-4)GlcNAc(b1-4)GlcNAc
# How it was run: as §1
# [5] = biological target: GlcNAc(b1-3)Gal(b1-4)GlcNAc(b1-3)Gal(b1-4)GlcNAc
# How it was run: as §1
# [6] = biological target: GlcNAc(b1-3)Gal(b1-4)GlcNAc(b1-3)Gal(b1-4)GlcNAc(b1-2)Man(a1-3)[GlcNAc(b1-3)Gal(b1-4)GlcNAc(b1-3)Gal(b1-4)GlcNAc(b1-2)Man(a1-6)]Man(b1-4)GlcNAc(b1-4)GlcNAc
# How it was run: as §1
# [7] = biological target: GlcNAc(b1-3)Gal(b1-4)GlcNAc(b1-3)Gal(b1-4)GlcNAc(b1-2)Man(a1-3)[GlcNAc(b1-3)Gal(b1-4)GlcNAc(b1-3)Gal(b1-4)GlcNAc(b1-2)Man(a1-6)]Man(b1-4)GlcNAc(b1-4)[Fuc(a1-6)]GlcNAc
# How it was run: as §1
# [8] = biological target: GlcNAc(b1-3)Gal(b1-4)GlcNAc(b1-3)Gal(b1-4)GlcNAc(b1-2)[GlcNAc(b1-3)Gal(b1-4)GlcNAc(b1-3)Gal(b1-4)GlcNAc(b1-6)]Man(a1-6)[GlcNAc(b1-3)Gal(b1-4)GlcNAc(b1-3)Gal(b1-4)GlcNAc(b1-2)Man(a1-3)]Man(b1-4)GlcNAc(b1-4)[Fuc(a1-6)]GlcNAc
# How it was run: as §1
# [9] = biological target: GlcNAc(b1-3)Gal(b1-4)GlcNAc(b1-3)Gal(b1-4)GlcNAc(b1-3)Gal(b1-4)GlcNAc(b1-2)Man(a1-3)[GlcNAc(b1-3)Gal(b1-4)GlcNAc(b1-3)Gal(b1-4)GlcNAc(b1-3)Gal(b1-4)GlcNAc(b1-2)Man(a1-6)]Man(b1-4)GlcNAc(b1-4)GlcNAc
# How it was run: as §1
# [10] = biological target: GlcNAc(b1-3)Gal(b1-4)GlcNAc(b1-3)Gal(b1-4)GlcNAc(b1-3)Gal(b1-4)GlcNAc(b1-2)Man(a1-3)[GlcNAc(b1-3)Gal(b1-4)GlcNAc(b1-3)Gal(b1-4)GlcNAc(b1-3)Gal(b1-4)GlcNAc(b1-2)Man(a1-6)]Man(b1-4)GlcNAc(b1-4)[Fuc(a1-6)]GlcNAc
# How it was run: as §1
# [11] = biological target: GlcNAc(b1-3)Gal(b1-4)GlcNAc(b1-3)Gal(b1-4)GlcNAc(b1-3)Gal(b1-4)GlcNAc(b1-2)[GlcNAc(b1-3)Gal(b1-4)GlcNAc(b1-3)Gal(b1-4)GlcNAc(b1-3)Gal(b1-4)GlcNAc(b1-6)]Man(a1-6)[GlcNAc(b1-3)Gal(b1-4)GlcNAc(b1-3)Gal(b1-4)GlcNAc(b1-3)Gal(b1-4)GlcNAc(b1-2)Man(a1-3)]Man(b1-4)GlcNAc(b1-4)[Fuc(a1-6)]GlcNAc
# How it was run: as §1
# [12] = biological target: GlcNAc(b1-3)Gal(b1-4)GlcNAc(b1-3)Gal(b1-4)GlcNAc(b1-3)Gal(b1-4)GlcNAc(b1-3)Gal(b1-4)GlcNAc(b1-2)Man(a1-3)[GlcNAc(b1-3)Gal(b1-4)GlcNAc(b1-3)Gal(b1-4)GlcNAc(b1-3)Gal(b1-4)GlcNAc(b1-3)Gal(b1-4)GlcNAc(b1-2)Man(a1-6)]Man(b1-4)GlcNAc(b1-4)GlcNAc
# How it was run: as §1
# [13] = biological target: GlcNAc(b1-3)Gal(b1-4)GlcNAc(b1-3)Gal(b1-4)GlcNAc(b1-3)Gal(b1-4)GlcNAc(b1-3)Gal(b1-4)GlcNAc(b1-2)Man(a1-3)[GlcNAc(b1-3)Gal(b1-4)GlcNAc(b1-3)Gal(b1-4)GlcNAc(b1-3)Gal(b1-4)GlcNAc(b1-3)Gal(b1-4)GlcNAc(b1-2)Man(a1-6)]Man(b1-4)GlcNAc(b1-4)[Fuc(a1-6)]GlcNAc
# How it was run: as §1
# [14] = biological target: GlcNAc(b1-3)Gal(b1-4)GlcNAc(b1-3)Gal(b1-4)GlcNAc(b1-3)Gal(b1-4)GlcNAc(b1-3)Gal(b1-4)GlcNAc(b1-2)[GlcNAc(b1-3)Gal(b1-4)GlcNAc(b1-3)Gal(b1-4)GlcNAc(b1-3)Gal(b1-4)GlcNAc(b1-3)Gal(b1-4)GlcNAc(b1-6)]Man(a1-6)[GlcNAc(b1-3)Gal(b1-4)GlcNAc(b1-3)Gal(b1-4)GlcNAc(b1-3)Gal(b1-4)GlcNAc(b1-3)Gal(b1-4)GlcNAc(b1-2)Man(a1-3)]Man(b1-4)GlcNAc(b1-4)[Fuc(a1-6)]GlcNAc
# How it was run: as §1
# [15] = biological target: GlcNAc(b1-3)Gal(b1-4)GlcNAc(b1-3)Gal(b1-4)GlcNAc(b1-3)GalNAc
# How it was run: as §1
# [16] = biological target: GlcNAc(b1-3)Gal(b1-4)GlcNAc(b1-3)GalNAc
# How it was run: as §1
# [17] = biological target: GlcNAc(b1-3)Gal(b1-4)GlcNAc(b1-3)[GlcNAc(b1-3)Gal(b1-4)GlcNAc(b1-3)]GalNAc
# How it was run: as §1
# [18] = biological target: GlcNAc(b1-3)Gal(b1-4)GlcNAc(b1-6)[Gal(b1-3)]GalNAc
# How it was run: as §1
# [19] = biological target: GlcNAc(b1-3)Gal(b1-4)GlcNAc(b1-6)[GlcNAc(b1-3)Gal(b1-3)]GalNAc
# How it was run: as §1
# [20] = biological target: GlcNAc(b1-3)Gal(b1-4)GlcNAc(b1-6)[GlcNAc(b1-3)]Gal(b1-4)GlcNAc
# How it was run: as §1
# GlcNAc(b1-3)GalNAc = biological target: GlcNAc(b1-3)GalNAc
# How it was run: as §1
# GlcNAc(b1-3)Man = biological target: GlcNAc(b1-3)Man
# How it was run: as §1
# [21] = biological target: GlcNAc(b1-3)[GlcNAc(b1-4)][GlcNAc(b1-6)]GlcNAc
# How it was run: as §1
# [22] = biological target: GlcNAc(b1-3)[GlcNAc(b1-6)]Gal(b1-4)GlcNAc
# How it was run: as §1
# [23] = biological target: GlcNAc(b1-3)[GlcNAc(b1-6)]GalNAc
# How it was run: as §1
# [24] = biological target: GlcNAc(b1-4)Gal(b1-4)GlcNAc
# How it was run: as §1
# GlcNAc(b1-4)GlcNAc = biological target: GlcNAc(b1-4)GlcNAc
# How it was run: as §1
# [25] = biological target: GlcNAc(b1-4)GlcNAc(b1-4)GlcNAc
# How it was run: as §1
# [26] = biological target: GlcNAc(b1-4)GlcNAc(b1-4)GlcNAc(b1-4)GlcNAc(b1-4)GlcNAc
# How it was run: as §1
# [27] = biological target: GlcNAc(b1-4)GlcNAc(b1-4)GlcNAc(b1-4)GlcNAc(b1-4)GlcNAc(b1-4)GlcNAc
# How it was run: as §1
# [28] = biological target: GlcNAc(b1-4)[GlcNAc(b1-6)]GalNAc
# How it was run: as §1
# [29] = biological target: GlcNAc(b1-6)Gal(b1-4)GlcNAc
# How it was run: as §1
# GlcNAc(b1-6)GalNAc = biological target: GlcNAc(b1-6)GalNAc
# How it was run: as §1
# [30] = biological target: GlcNAc6S(b1-3)Gal(b1-4)GlcNAc
# How it was run: as §1
# Kdn(a2-3)Gal(b1-3)GalNAc = biological target: Kdn(a2-3)Gal(b1-3)GalNAc
# How it was run: as §1
# Kdn(a2-3)Gal(b1-3)GlcNAc = biological target: Kdn(a2-3)Gal(b1-3)GlcNAc
# How it was run: as §1
binder,measurement,setting,value
B1,glycan array binding signal (z-score),GlcNAc(b1-3)Gal(b1-4)Glc,-0.475
same,glycan array binding signal (z-score),[1],-0.213
same,glycan array binding signal (z-score),[2],0.169
same,glycan array binding signal (z-score),[3],0.76
same,glycan array binding signal (z-score),[4],-0.234
same,glycan array binding signal (z-score),[5],1.17
same,glycan array binding signal (z-score),[6],2.18
same,glycan array binding signal (z-score),[7],-0.097
same,glycan array binding signal (z-score),[8],-0.316
same,glycan array binding signal (z-score),[9],2.55
same,glycan array binding signal (z-score),[10],0.69
same,glycan array binding signal (z-score),[11],-0.424
same,glycan array binding signal (z-score),[12],-0.292
same,glycan array binding signal (z-score),[13],-0.064
same,glycan array binding signal (z-score),[14],1.38
same,glycan array binding signal (z-score),[15],-0.739
same,glycan array binding signal (z-score),[16],-0.408
same,glycan array binding signal (z-score),[17],-0.853
same,glycan array binding signal (z-score),[18],0.767
same,glycan array binding signal (z-score),[19],0.624
same,glycan array binding signal (z-score),[20],-0.713
same,glycan array binding signal (z-score),GlcNAc(b1-3)GalNAc,-0.24
same,glycan array binding signal (z-score),GlcNAc(b1-3)Man,-0.774
same,glycan array binding signal (z-score),[21],-1.13
same,glycan array binding signal (z-score),[22],-1.09
same,glycan array binding signal (z-score),[23],-0.249
same,glycan array binding signal (z-score),[24],-0.268
same,glycan array binding signal (z-score),GlcNAc(b1-4)GlcNAc,0.138
same,glycan array binding signal (z-score),[25],0.051
same,glycan array binding signal (z-score),[26],-0.221
same,glycan array binding signal (z-score),[27],-0.342
same,glycan array binding signal (z-score),[28],0.016
same,glycan array binding signal (z-score),[29],-0.596
same,glycan array binding signal (z-score),GlcNAc(b1-6)GalNAc,1.42
same,glycan array binding signal (z-score),[30],0.017
same,glycan array binding signal (z-score),Kdn(a2-3)Gal(b1-3)GalNAc,0.802
same,glycan array binding signal (z-score),Kdn(a2-3)Gal(b1-3)GlcNAc,-0.302

# Part of the list above, tab-delimited.
binder	measurement	setting	value
B1	glycan array binding signal (z-score)	GlcNAc(b1-3)Man	-0.774
same	glycan array binding signal (z-score)	[21]	-1.13
same	glycan array binding signal (z-score)	[22]	-1.09
same	glycan array binding signal (z-score)	[23]	-0.249
same	glycan array binding signal (z-score)	[24]	-0.268
same	glycan array binding signal (z-score)	GlcNAc(b1-4)GlcNAc	0.138
same	glycan array binding signal (z-score)	[25]	0.051
same	glycan array binding signal (z-score)	[26]	-0.221
same	glycan array binding signal (z-score)	[27]	-0.342
same	glycan array binding signal (z-score)	[28]	0.016
